# “And” between values parts separate entries of the source, which are not always exact repeats. Equal entries are not always repeated. The inconclusive results got no clear call from the source; some entries with a clear call stand among them for comparison. For some assays here: Where the call is inconclusive, the potency comes from a doubtful curve fit. The source made the active and inactive calls. Unless noted, the call rests on the fitted dose curve.
# By UniProt entry, the sequences of proteins in these tests, tags left out. Where a name states a change or a piece, a line headed by the entry shows the natural chain unless it says otherwise.
# UniProt P28223, whole entry, looked up: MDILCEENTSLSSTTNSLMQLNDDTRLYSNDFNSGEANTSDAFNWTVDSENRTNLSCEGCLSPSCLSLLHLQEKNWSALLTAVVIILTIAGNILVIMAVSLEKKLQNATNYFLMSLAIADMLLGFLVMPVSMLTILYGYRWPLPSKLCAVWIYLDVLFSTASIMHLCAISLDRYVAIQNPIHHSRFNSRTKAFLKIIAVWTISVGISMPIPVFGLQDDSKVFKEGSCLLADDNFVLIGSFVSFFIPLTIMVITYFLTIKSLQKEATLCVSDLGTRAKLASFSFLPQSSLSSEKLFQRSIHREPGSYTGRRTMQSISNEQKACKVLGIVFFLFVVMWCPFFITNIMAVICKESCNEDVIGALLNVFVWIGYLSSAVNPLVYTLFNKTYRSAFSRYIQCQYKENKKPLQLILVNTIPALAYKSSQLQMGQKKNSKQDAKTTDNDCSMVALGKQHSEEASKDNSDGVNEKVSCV
# UniProt P14416, whole entry, looked up: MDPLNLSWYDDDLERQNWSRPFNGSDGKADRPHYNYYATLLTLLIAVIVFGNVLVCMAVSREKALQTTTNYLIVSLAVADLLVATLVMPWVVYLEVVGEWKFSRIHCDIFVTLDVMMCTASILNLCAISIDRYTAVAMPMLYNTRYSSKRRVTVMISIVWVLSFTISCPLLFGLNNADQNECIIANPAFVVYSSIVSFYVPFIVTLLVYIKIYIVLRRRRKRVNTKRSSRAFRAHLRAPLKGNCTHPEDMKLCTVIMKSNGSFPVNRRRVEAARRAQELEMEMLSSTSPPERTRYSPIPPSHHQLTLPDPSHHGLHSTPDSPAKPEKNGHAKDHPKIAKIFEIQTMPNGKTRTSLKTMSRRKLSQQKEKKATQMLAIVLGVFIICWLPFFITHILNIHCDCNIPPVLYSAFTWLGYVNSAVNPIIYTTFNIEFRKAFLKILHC
# UniProt P11229: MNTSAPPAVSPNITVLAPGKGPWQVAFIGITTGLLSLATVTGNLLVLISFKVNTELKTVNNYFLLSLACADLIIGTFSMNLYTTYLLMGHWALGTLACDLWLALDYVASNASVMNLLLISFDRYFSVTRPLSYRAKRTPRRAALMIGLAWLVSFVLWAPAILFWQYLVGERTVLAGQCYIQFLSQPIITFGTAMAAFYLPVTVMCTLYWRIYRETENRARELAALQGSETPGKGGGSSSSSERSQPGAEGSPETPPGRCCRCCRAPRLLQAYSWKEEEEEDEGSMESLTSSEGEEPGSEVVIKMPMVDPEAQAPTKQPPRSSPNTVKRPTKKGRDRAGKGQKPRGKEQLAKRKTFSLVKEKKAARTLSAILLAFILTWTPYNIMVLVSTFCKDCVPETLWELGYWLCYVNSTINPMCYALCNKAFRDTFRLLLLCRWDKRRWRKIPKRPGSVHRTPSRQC
# Assays:
# [1] = biological target: 5-hydroxytryptamine receptor 2A (Homo sapiens) (UniProt P28223); assay: 5-hydroxytryptamine receptor 2A (HTR2A) small molecule antagonists, cell-based qHTS assay (AID 1963586); further: nearly all actives have a fitted effect of over 45% in size; further: potency means the concentration at half of the fitted maximal effect
# Outline: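 Antagonist-mode intracellular calcium assay: DOI (4 nM) added after 5 min compound pre-incubation at room temperature to dye-loaded HTR2A-CHO cells. Fluorescence followed for 3 min, sampled every second.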
# [2] = biological target: Beta-2 adrenergic receptor (Homo sapiens) (UniProt P07550); assay: Adrenergic beta2 receptor (ADRB2) small molecule agonists, cell-based qHTS assay (AID 1963593); settings: CHO-ADRB2 cells, cAMP HTRF, 30 min; further: potency means the concentration at half of the fitted maximal effect;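 on activation: CHO cells stably overexpressing human ADRB2; on the % scale 0 is the no-effect control and ±100 the full control effect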
# Outline: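 CHO cells stably over-expressing ADRB2 were plated overnight at 37C, then dosed with compounds plus a stimulation mix containing 100uM IBMX and 25uM Ro-20-1724 for 0.5hr at room temperature. cAMP was measured by HTRF competition, 1hr.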
# [3] = biological target: D(2) dopamine receptor (Homo sapiens) (UniProt P14416); assay: Dopamine D2 receptor (DRD2) small molecule agonists, cell-based qHTS assay (AID 1963594); settings: HEK293-DRD2 cAMP HTRF, agonist mode, 30 min; activation: at 92.4 µM (top of the series) unless noted; further: nearly all actives have a fitted effect of over 35% in size; further: potency means the concentration at half of the fitted maximal effect
# Outline: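 cAMP accumulation in DRD2-HEK293 cells measured by HTRF after 1 h detection; compounds added 10 min before NKH477 (200nM […]) forskolin-analogue stimulation, 30 min at room temperature, with Ro20-1724 present at 0.1 mM final.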
# [4] = cAMP Responsive Elements (CRE) small molecule antagonists, cell-based qHTS assay (AID 1963591; active means well fitted inhibition curve with a large enough effect in the signal ratio in the repeat runs, not every such curve was filed as active; inconclusive means weak or mixed curves, or effect the other way; the % refers to the signal ratio; further: on the % scale 0 is the no-effect control and ±100 the full control effect); settings: CRE-bla HEK293T, beta-lactamase FRET ratio; activity change, negative = inhibition: at 92.4 µM (top of the series) unless noted
# Outline: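 CRE-bla HEK293T cells were plated 18 h at 37 °C/5% CO2, pinned with compound in DMSO, then stimulated with NKH477 at 0.25 uM final for 3 h. LiveBLAzer B/G FRET substrate was added and plates incubated 2 h at room temperature.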
# [5] = biological target: D(2) dopamine receptor (Homo sapiens) (UniProt P14416); assay: Dopamine D2 receptor (DRD2) small molecule antagonists, cell-based qHTS assay (AID 1963595; active means well fitted inhibition curve with a large enough effect in the signal ratio in the repeat runs, with a control signal flat; inconclusive means weak or mixed curves, or effect the other way; the % refers to the signal ratio; further: on the % scale 0 is the no-effect control and ±100 the full control effect); settings: HEK293-DRD2 cAMP HTRF antagonist mode; activity change, negative = inhibition: at 92.4 µM (top of the series) unless noted
# Outline: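 Readout: HTRF cAMP, cAMP-d2 competing with cellular cAMP for anti-cAMP cryptate, read after 1 h. Cells: DRD2-HEK293. Conditions: 0.1 mM Ro20-1724, 12 nM quinpirole, 200 nM NKH477, 30 min RT.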
# [6] = biological target: 5-hydroxytryptamine receptor 2A (Homo sapiens) (UniProt P28223); assay: 5-hydroxytryptamine receptor 2A (HTR2A) small molecule agonists, cell-based qHTS assay (AID 1963587); settings: HTR2A-CHO cells, calcium flux fluorescence, agonist mode; activation: at 76.8 µM (top of the series); further: potency means the concentration at half of the fitted maximal effect; nearly all actives have a fitted effect of over 30% in size
# Outline: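 Kinetic calcium-flux fluorescence (2 min, 1 sec intervals) after compound addition in agonist mode. HTR2A-CHO cells were cultured 18 h, then dye-loaded 1 h at 37 C.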
# [7] = cAMP Responsive Elements (CRE) small molecule agonists, cell-based qHTS assay (AID 1963590); settings: CRE-bla HEK293T, beta-lactamase FRET ratio, 3 h; activation: at 92.4 µM (top of the series) unless noted; further: on the % scale 0 is the no-effect control and ±100 the full control effect
# Outline: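 CRE-bla HEK 293T cells in DMEM with 10% dialyzed FBS, NEAA, pyruvate and 25 mM HEPES were plated 18 h at 37 C/5% CO2, then exposed to compounds in DMSO for 3 h before LiveBLAzer B/G FRET substrate addition.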
# [8] = biological target: Beta-2 adrenergic receptor (Homo sapiens) (UniProt P07550); assay: Adrenergic beta2 receptor (ADRB2) small molecule antagonists, cell-based qHTS assay (AID 1963592); settings: CHO-ADRB2 cells, isoproterenol-stimulated cAMP HTRF ratio, 0.5 h; activity change, negative = inhibition: at 92.4 µM (top of the series) unless noted; further: on the % scale 0 is the no-effect control and ±100 the full control effect; nearly all actives have a fitted effect of over 50% in size
# Outline: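 Cells (CHO, stable ADRB2 overexpression) incubated 18-20hr at 37C; compounds added from DMSO; agonist mix (1nM isoproterenol, 100uM IBMX, 25uM Ro-20-1724) added; 0.5hr RT; d2-cAMP and anti-cAMP-cryptate added; 1hr RT; 665/615 nm read.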
# [9] = biological target: Muscarinic acetylcholine receptor M1 (Homo sapiens) (UniProt P11229); assay: Cholinergic receptor muscarinic 1 (CHRM1) small molecule antagonists, cell-based qHTS assay (AID 1963588); further: potency means the concentration at half of the fitted maximal effect; nearly all actives have a fitted effect of over 40% in size
# Outline: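 CHRM1-CHO calcium-flux assay, antagonist mode. Cells were seeded 18 h, dye-loaded 1 h at 37 C and given compound for 5 min at RT, then acetylcholine was added at 50nM. FDSS fluorescence was read 3 min; 15 concentrations, three runs.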
# [10] = biological target: Muscarinic acetylcholine receptor M1 (Homo sapiens) (UniProt P11229); assay: Cholinergic receptor muscarinic 1 (CHRM1) small molecule agonists, cell-based qHTS assay (AID 1963589); settings: CHRM1-CHO cells, agonist mode, calcium flux fluorescence; activation: at 76.8 µM (top of the series); further: potency means the concentration at half of the fitted maximal effect; nearly all actives have a fitted effect of over 35% in size
# Outline: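 CHO cells stably expressing human CHRM1, seeded 18 h at 37 C/5% CO2, dye-loaded 1 h at 37 C, then given compound in agonist mode; intracellular calcium fluorescence read kinetically at 1 s intervals. Fifteen concentrations, three independent runs.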
# [11] = activation: at 92.4 µM (top of the series) unless noted
smiles,measurement,setting,value
Nc1ccccc1C(=O)O,Potency,[1],"inconclusive: 1030 nM [inhibitor, full curve, poor fit]"
same,activation,[2]; [11],inconclusive: -31.1%
same,activation,[3],inconclusive: 111%
COCC(=O)N(c1c(C)cccc1C)C(C)C(=O)OC (stereo not drawn),Potency,[1],"inconclusive: 2970 nM [inhibitor, partial curve, poor fit]"
same,Potency,[4],inactive
same,activation,[2]; at 42.5 µM (top of the series),inconclusive: 4.14%
same,activation,[2]; at 92.4 µM (top of the series),inconclusive: 1.9% and inconclusive: 5.55%
CCOc1nc(F)cc2nc(S(=O)(=O)Nc3c(Cl)cccc3Cl)nn12,Potency,[1],inactive
same,Potency,[4],inactive
same,activation,[2]; [11],inconclusive: -36.2%
same,"activity change, negative = inhibition",[5],inconclusive: 7.99%
O=S1(=O)OCCO1,Potency,[1],"inconclusive: 858 nM [inhibitor, single point]"
same,Potency,[3],"inconclusive: 5180 nM [falling, full curve, poor fit]"
CCc1cc(OC)c(C[C@H](C)N)cc1OC,Potency,[6],"inconclusive: 1 nM [activator, full curve, poor fit]"
Cc1ccc(N)c(C)c1,Potency,[1],"inconclusive: 18900 nM [inhibitor, single point]"
same,activation,[2]; [11],inconclusive: 17.5% and inconclusive: 5.54%
CNCC(O)c1ccc(O)cc1 (stereo not drawn),Potency,[1],"inconclusive: 13300 nM [inhibitor, full curve, poor fit]"
same,Potency,[2]; [11],"inconclusive: 2.73 µM [activator, full curve]"
same,activation,[2]; [11],inconclusive: 39.1% [at 42.5 µM]
same,Potency,[3],"inconclusive: 33500 nM [falling, partial curve, poor fit]"
CC1(C)C(/C=C(\Cl)C(F)(F)F)C1C(=O)OC(C#N)c1cccc(Oc2ccccc2)c1 (stereo not drawn),Potency,[1],"inconclusive: 240 nM [inhibitor, full curve, poor fit]"
same,activation,[2]; [11],inconclusive: 0.946%
ClCBr,Potency,[1],"inconclusive: 1990 nM [inhibitor, partial curve, poor fit]"
same,activation,[2]; [11],inconclusive: 0.191%
C1CCC(NC2CCCCC2)CC1,Potency,[1],"inconclusive: 7.3 nM [inhibitor, full curve, poor fit]"
same,Potency,[5],inactive
COc1ccc2c(C(=O)c3ccc(Cl)cc3)c(C)n(CC(=O)O)c2c1,Potency,[1],"inconclusive: 32.6 nM [inhibitor, single point]"
same,Potency,[2]; [11],"inconclusive: 26.6 µM [inhibitor, partial curve, poor fit]"
ClCc1cccc(Cl)c1,Potency,[1],"inconclusive: 1160 nM [inhibitor, single point]"
same,Potency,[7],inactive
same,activation,[3],inconclusive: -8.5% [at 42.5 µM]
Sc1ccccc1,Potency,[1],"inconclusive: 421 nM [inhibitor, single point]"
same,Potency,[2]; [11],inactive
same,Potency,[3],inactive
Cc1nc(N(C)C)nc(OC(=O)N(C)C)c1C,Potency,[1],inactive
same,Potency,[2]; [11],inactive
Clc1ccccc1,Potency,[1],inactive
same,Potency,[8],inactive
same,Potency,[2]; [11],inactive
CC(C)(C)c1ccc(O)cc1,Potency,[1],inactive
same,Potency,[2]; [11],"inconclusive: 7.02 µM [inhibitor, partial curve, poor fit] and inconclusive: 298 nM [inhibitor, single point]"
ClC(Cl)=C(Cl)Cl,Potency,[1],"inconclusive: 370 nM [inhibitor, single point]"
same,Potency,[5],inactive
CN1[C@@H]2CC[C@H]1CC(OC(=O)c1cc(Cl)cc(Cl)c1)C2 (stereo partly drawn),Potency,[1],inactive
same,Potency,[3],inactive
COC(=O)NC(=S)Nc1ccccc1NC(=S)NC(=O)OC,Potency,[1],"inconclusive: 18800 nM [inhibitor, single point]"
same,"activity change, negative = inhibition",[4],inconclusive: 19.2%
O=C(O)c1cc(Oc2ccc(C(F)(F)F)cc2Cl)ccc1[N+](=O)[O-],Potency,[1],"inconclusive: 14.9 nM [inhibitor, full curve, poor fit]"
same,Potency,[2]; [11],"inconclusive: 0.245 µM [inhibitor, full curve, poor fit]"
same,activation,[2]; [11],inconclusive: -33.2%
same,activation,[2]; at 42.5 µM (top of the series),inactive: 0.691%
same,activation,[2]; at 92.4 µM (top of the series),inactive: -11.4%
same,Potency,[3],"inconclusive: 805 nM [falling, full curve, poor fit]"
COc1c2c(cc3c1OCO3)CCN(C)C2,Potency,[1],active: 16300 nM
same,Potency,[2]; [11],inactive
same,Potency,[3],active: 6680 nM
C=CCc1ccc(OC(=O)Cc2ccccc2)c(OC)c1,Potency,[1],inactive
same,"activity change, negative = inhibition",[4],inconclusive: 21.6%
same,"activity change, negative = inhibition",[8],inconclusive: -0.982%
same,activation,[2]; [11],inconclusive: 9.36%
ClC(Cl)=C(Cl)C(Cl)=C(Cl)Cl,Potency,[9],"inconclusive: 14.8 nM [inhibitor, full curve, poor fit]"
same,Potency,[7],inactive
same,activation,[2]; [11],inconclusive: 3.83%
same,activation,[2]; at 92.4 µM (top of the series),inactive: -0.4%
CCNc1nc(NC(C)C(C)C)nc(SC)n1 (stereo not drawn),Potency,[6],"inconclusive: 30900 nM [activator, partial curve]"
same,Potency,[10],"inconclusive: 61600 nM [rising, partial curve, poor fit]"
same,Potency,[2]; [11],"inconclusive: 1.09 µM [inhibitor, full curve, poor fit]"
same,Potency,[5],inactive

# Looked up one by one from the entries so far (five):
smiles,measurement,setting,value
Sc1ccccc1,Potency,[1],"inconclusive: 421 nM [inhibitor, single point]"
Clc1ccccc1,Potency,[1],inactive
CNCC(O)c1ccc(O)cc1 (stereo not drawn),Potency,[2]; [11],"inconclusive: 2.73 µM [activator, full curve]"
C=CCc1ccc(OC(=O)Cc2ccccc2)c(OC)c1,"activity change, negative = inhibition",[8],inconclusive: -0.982%
CCNc1nc(NC(C)C(C)C)nc(SC)n1 (stereo not drawn),Potency,[10],"inconclusive: 61600 nM [rising, partial curve, poor fit]"
